Source: PMC6280496
Results are given in words; binding and its absence hold for the method and conditions named. In cells and extracts the contact can be indirect. For some of these results: Binding can be weak; no strength is given.

How the values were obtained:
Experiment in all cases: co-IP; CCA cells lysed in ice-cold IP lysis buffer with protease and phosphatase inhibitors; Dynabeads protein G IP kit; precipitates analysed by western blot
[1] = molecular target: integrin α5β1 (human (endogenous in CCA cells))
[2] = molecular target: integrin α6β4 (human (endogenous in CCA cells))
[3] = molecular target: integrin α6β1 (human (endogenous in CCA cells))
[4] = molecular target: integrin αVβ6 (human (endogenous in CCA cells))

binding [1]: no binding
binding [2]: no binding
binding [3]: binds
binding [4]: no binding
B1: Tetraspanin 1 (TSPAN1) (protein, UniProt O60635 1-241)
chain: MQCFSFIKTMMILFNLLIFLCGAALLAVGIWVSIDGASFLKIFGPLSSSAMQFVNVGYFLIAAGVVVFALGFLGCYGAKTESKCALVTFFFILLLIFIAEVAAAVVALVYTTMAEHFLTLLVVPAIKKDYGSQEDFTQVWNTTMKGLKCCGFTNYTDFEDSPYFKENSAFPPFCCNDNVTNTANETCTKQKAHDQKVEGCFNQLLYDIRTNAVTVGGVAAGIGGLELAAMIVSMYLYCNLQ
